PubChem BioAssay AID652243, Drosophila RNAi Screening Center – 2013
The deposit covers about 24,000 reagents; below is a random part of those with a known target gene and a result. Of all reagents, 246 (1%) are marked active. 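Plates not normalised; calls are printed but the firefly/Renilla ratio behind them is not deposited; fold cut for lowering reported inconsistently.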 The raw values are shown without normalisation. Unmarked entries are inactive. Not given: the amount of reagent.

Purpose: 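Fly genes required for human androgen receptor driven transcription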 (primary screen)
Cells: Drosophila S2R+ cells
Reagent: long dsRNA against Drosophila genes
Time to read-out: 72 h (48 h, then 24 h hormone)
Conditions: synthetic androgen R1881 at 10 nM for 24 h
Read-out: 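Per-well raw luminescence of the androgen-driven firefly reporter and of the Renilla control, two replicates each, without normalisation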
Direction: firefly reporter light: higher = more light from androgen-responsive reporter; Renilla control light: higher = more constitutive control signal (cell number, transfection)
Active means: 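Across duplicate plates, a knock-down whose log firefly/Renilla ratio shifted a set fold down or up from the GFP/LacZ control mean was a hit; the downward cut appears as both 1.5 and 3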
Calls: active = hit: reporter lowered or raised; inactive = no hit

| Target gene | amplicon | firefly reporter light, replicate 1 | firefly reporter light, replicate 2 | Renilla control light, replicate 1 | Renilla control light, replicate 2 |
| --- | --- | --- | --- | --- | --- |
| CG8441 (GeneID 36792) | DRSC07180 | 9.26e5 | 7.68e5 | 2.03e6 | 1.54e6 |
| CG5506 (GeneID 39992) | DRSC10511 | 2.28e5 | 2.21e5 | 1.62e6 | 1.58e6 |
| CG7707 (GeneID 39923) | DRSC10903 | 2.92e5 | 2.60e5 | 3.50e6 | 2.87e6 |
| CG6013 (GeneID 42286) | DRSC15947 | 52586 (active) | 63658 | 9.42e5 | 1.04e6 |
| CG6013 (GeneID 42286) | DRSC29573 | 2.67e5 | 4.31e5 | 4.20e5 | 4.20e5 |
| Spn38F (GeneID 49806) | DRSC03616 | 1.85e5 | 1.90e5 | 1.36e6 | 1.74e6 |
| Spn38F (GeneID 49806) | DRSC24629 | 2.20e5 | 3.03e5 | 6.02e5 | 3.71e5 |
| CG12402 (GeneID 41714) | DRSC14508 | 1.44e5 | 1.27e5 | 1.98e6 | 2.32e6 |
| CG12402 (GeneID 41714) | DRSC26872 | 3.40e5 | 4.21e5 | 8.62e5 | 8.65e5 |
| CG13711 (GeneID 38576) | DRSC08320 | 2.02e5 | 2.19e5 | 9.81e5 | 1.60e6 |
| CG13711 (GeneID 38576) | DRSC24101 | 8.77e5 | 4.82e5 | 9.18e5 | 1.29e6 |
| Drs (GeneID 38419) | DRSC08657 | 1.65e5 | 1.54e5 | 2.83e6 | 3.32e6 |
| Drs (GeneID 38419) | DRSC27852 | 9.09e5 | 4.09e5 | 4.26e6 | 1.79e6 |
| Prosalpha5 (GeneID 36951) | DRSC07514 | 6.06e5 | 1.26e6 | 1.47e6 | 1.98e6 |
| CG4133 (GeneID 33221) | DRSC23122 | 5.95e5 | 7.46e5 | 1.48e6 | 1.51e6 |
| Hsp60C (GeneID 33796) | DRSC03036 | 1.67e5 | 2.10e5 | 1.04e6 | 1.19e6 |
| Hsp60C (GeneID 33796) | DRSC29438 | 5.02e5 | 6.14e5 | 9.55e5 | 9.55e5 |
| TER94 (GeneID 36040) | DRSC07560 | 8.39e5 | 8.66e5 | 1.71e6 | 1.60e6 |
| TER94 (GeneID 36040) | DRSC27600 | 2.95e5 | 2.45e5 | 6.49e5 | 8.89e5 |
| nerfin-1 (GeneID 44786) | DRSC08729 | 81830 | 90721 | 1.20e6 | 1.58e6 |
| Gr93a (GeneID 42568) | DRSC14593 | 3.26e5 | 3.90e5 | 5.20e6 | 3.96e6 |
| ect (GeneID 44135) | DRSC10675 | 4.03e5 | 3.95e5 | 2.28e6 | 2.78e6 |
| ect (GeneID 44135) | DRSC11343 | 1.02e5 | 97095 | 2.29e6 | 1.59e6 |
| ect (GeneID 44135) | DRSC22357 | 7.02e5 | 7.88e5 | 1.62e6 | 1.21e6 |
| ect (GeneID 44135) | DRSC27880 | 6.15e5 | 4.08e5 | 2.23e6 | 1.60e6 |
| CG17944 (GeneID 40885) | DRSC12572 | 1.18e5 | 1.58e5 | 3.63e6 | 3.15e6 |
| tsl (GeneID 42564) | DRSC17090 | 2.71e5 | 3.06e5 | 2.94e6 | 3.20e6 |
| CG42541 (GeneID 31344) | DRSC17973 | 3.90e5 | 2.79e5 | 2.87e6 | 2.35e6 |
| CG42541 (GeneID 31344) | DRSC18120 | 4.20e5 | 3.94e5 | 3.65e6 | 2.90e6 |
| CG42541 (GeneID 31344) | DRSC25318 | 8.06e5 | 8.24e5 | 1.15e6 | 1.28e6 |
| CG42541 (GeneID 31344) | DRSC25441 | 5.64e5 | 6.35e5 | 7.92e5 | 6.61e5 |
| Rab8 (GeneID 40168) | DRSC11261 | 65457 | 63006 | 4.16e5 | 3.02e5 |
| cal1 (GeneID 42065) | DRSC15725 | 1.12e5 | 85000 | 6.97e5 | 6.32e5 |
| ecd (GeneID 38291) | DRSC08574 | 8.74e5 | 1.07e6 | 1.85e6 | 1.03e6 |
| Jhbp11 (GeneID 43263) | DRSC15183 | 1.93e5 | 1.85e5 | 1.52e6 | 2.48e6 |
| Jhbp11 (GeneID 43263) | DRSC29679 | 5.67e5 | 6.91e5 | 9.60e5 | 9.60e5 |
| Mct1 (GeneID 31198) | DRSC18681 | 1.93e5 | 2.55e5 | 2.46e6 | 2.71e6 |
| Mct1 (GeneID 31198) | DRSC29006 | 5.08e5 | 5.59e5 | 1.33e6 | 1.10e6 |
| CG11403 (GeneID 31072) | DRSC18532 | 45583 | 45374 | 3.92e5 | 4.72e5 |
| CG13471 (GeneID 39604) | DRSC10015 | 2.16e5 | 2.17e5 | 2.21e6 | 2.09e6 |
| CG15080 (GeneID 37167) | DRSC06511 | 1.13e5 | 1.08e5 | 1.50e6 | 1.32e6 |
| CG15080 (GeneID 37167) | DRSC29374 | 3.96e5 | 4.31e5 | 9.94e5 | 9.94e5 |
| CG13813 (GeneID 40218) | DRSC10068 | 2.08e5 | 1.80e5 | 1.78e6 | 1.84e6 |
| CG10979 (GeneID 40720) | DRSC12153 | 51473 | 32288 | 1.02e6 | 6.78e5 |
| CG33290 (GeneID 2768993) | DRSC11493 | 1.96e5 | 2.43e5 | 5.28e5 | 5.55e5 |
| CG33290 (GeneID 2768993) | DRSC27148 | 2.14e5 | 2.32e5 | 5.69e5 | 6.11e5 |
| RabX6 (GeneID 38084) | DRSC08223 | 1.28e5 | 1.18e5 | 1.40e6 | 1.48e6 |
| CG12828 (GeneID 5740660) | DRSC06177 | 4.52e5 | 3.58e5 | 2.31e6 | 1.59e6 |
| Tmem43 (GeneID 38881) | DRSC10964 | 84019 | 1.16e5 | 7.41e5 | 1.04e6 |
| Tmem43 (GeneID 38881) | DRSC26177 | 2.79e5 | 2.57e5 | 5.10e5 | 4.02e5 |
| TfIIEalpha (GeneID 39313) | DRSC11303 | 1.25e6 | 1.20e6 | 2.03e6 | 2.16e6 |
| TfIIEalpha (GeneID 39313) | DRSC27748 | 3.19e5 | 3.01e5 | 7.48e5 | 8.65e5 |
| CG14329 (GeneID 42116) | DRSC14808 | 1.00e5 | 94985 | 7.88e5 | 6.15e5 |
| ave (GeneID 246638) | DRSC05502 | 1.25e5 | 1.79e5 | 3.24e5 | 3.88e5 |
| ave (GeneID 246638) | DRSC28562 | 9.79e5 | 1.18e6 | 1.26e6 | 2.08e6 |
| CG7742 (GeneID 33750) | DRSC03066 | 6.96e5 | 8.50e5 | 1.15e6 | 1.29e6 |
| CG7179 (GeneID 34059) | DRSC25007 | 1.13e6 | 1.25e6 | 1.12e6 | 1.14e6 |
| asf1 (GeneID 40141) | DRSC11324 | 88080 | 72756 | 3.51e5 | 3.31e5 |
| asf1 (GeneID 40141) | DRSC24067 | 1.38e6 | 2.05e6 | 8.92e5 | 9.08e5 |

Records listed above with an active call, once more:
| Target gene | amplicon | firefly reporter light, replicate 1 | firefly reporter light, replicate 2 | Renilla control light, replicate 1 | Renilla control light, replicate 2 |
| --- | --- | --- | --- | --- | --- |
| CG6013 (GeneID 42286) | DRSC15947 | 52586 (active) | 63658 | 9.42e5 | 1.04e6 |
